Data on one substance can be found in paper PMC12412623.

Protein sequences, listed by entry. Tags and fused reporters are not part of them.
UniProt Q96I24: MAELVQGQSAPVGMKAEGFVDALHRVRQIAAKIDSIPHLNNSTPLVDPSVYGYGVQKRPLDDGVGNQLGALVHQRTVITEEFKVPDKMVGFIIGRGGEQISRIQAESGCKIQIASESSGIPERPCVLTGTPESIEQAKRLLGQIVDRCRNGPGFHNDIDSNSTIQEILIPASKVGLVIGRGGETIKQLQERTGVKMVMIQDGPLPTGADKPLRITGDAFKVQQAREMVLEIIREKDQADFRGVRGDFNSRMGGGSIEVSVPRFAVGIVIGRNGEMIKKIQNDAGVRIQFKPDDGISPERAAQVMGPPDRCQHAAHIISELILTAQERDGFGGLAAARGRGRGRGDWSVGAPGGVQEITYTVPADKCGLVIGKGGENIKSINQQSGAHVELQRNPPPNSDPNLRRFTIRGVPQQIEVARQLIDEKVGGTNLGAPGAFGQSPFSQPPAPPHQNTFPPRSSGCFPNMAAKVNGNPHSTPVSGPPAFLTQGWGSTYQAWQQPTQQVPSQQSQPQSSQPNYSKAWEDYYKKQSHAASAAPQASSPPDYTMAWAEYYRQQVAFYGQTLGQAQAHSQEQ
UniProt Q9Y6M1: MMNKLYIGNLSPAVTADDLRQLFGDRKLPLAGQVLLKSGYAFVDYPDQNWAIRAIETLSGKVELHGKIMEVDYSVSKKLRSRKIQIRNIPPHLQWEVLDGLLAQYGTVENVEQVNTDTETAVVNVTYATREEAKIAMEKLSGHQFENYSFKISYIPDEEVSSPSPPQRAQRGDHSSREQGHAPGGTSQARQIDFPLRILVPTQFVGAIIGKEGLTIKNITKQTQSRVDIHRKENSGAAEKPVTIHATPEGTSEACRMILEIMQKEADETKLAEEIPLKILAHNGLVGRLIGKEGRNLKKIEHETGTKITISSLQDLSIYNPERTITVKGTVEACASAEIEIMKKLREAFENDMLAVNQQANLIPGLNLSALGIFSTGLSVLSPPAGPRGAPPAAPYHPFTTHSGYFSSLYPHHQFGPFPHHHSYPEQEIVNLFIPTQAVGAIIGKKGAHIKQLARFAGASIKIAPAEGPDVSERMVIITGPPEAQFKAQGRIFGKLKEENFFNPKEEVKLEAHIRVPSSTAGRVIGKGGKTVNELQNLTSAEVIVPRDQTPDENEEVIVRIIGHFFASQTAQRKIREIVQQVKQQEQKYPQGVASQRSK

These are yes or no findings as the source states them, for the method shown. Binding seen in cells or lysates may run through a third protein.

This test deals with far upstream element-binding protein 3 (UniProt Q96I24). Briefly: co-IP; H1299 and PC9 cells transfected with IGF2BP2 or FUBP3 vectors; RIPA lysis and ultrasonication; lysate incubated overnight at 4 °C with antibody-loaded magnetic beads (IgG as control); washed thrice with binding buffer; western blot; CoIP using FUBP3. In general terms: A western blot detects proteins with antibodies after separation by electrophoresis.

On to “Insulin-like growth factor 2 mRNA-binding protein 2 (from UniProt Q9Y6M1 1-599)”, for which the binding entry was “no binding”.
